Record: PubChem BioAssay AID504764 (Drosophila RNAi Screening Center, 2011)
Assay: 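Genes whose knock-down alters Notch-dependent transcription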 (primary screen). Cell system: Drosophila Kc167 cells. Knock-down reagent: long dsRNA against Drosophila genes. Duration: about 5 days (4 days dsRNA, then 24 h after transfection). Treatment: transfection of constitutively active membrane-tethered Notch lacking the extracellular domain, read 24 h later. Detection: 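Light from a Notch-responsive E(spl)m3 luciferase reporter under active Notch, with control-promoter and no-Notch reporter wells to normalise; raw counts from paired wells a and b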. Scale: induced reporter light, run 1, well a and induced reporter light, run 1, well b: higher = more light from the Notch target reporter with active Notch; control promoter light, run 1, well a and control promoter light, run 1, well b: higher = more light from the viral control promoter (cell number, transfection, viability); uninduced reporter light, run 1, well a: higher = more light from the Notch target reporter without active Notch. Call rule: 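Hit if the duplicate-averaged log2 ratio of induced to control-promoter light gives a plate-wise z beyond ±2, or induced to uninduced beyond ±1.8; weak-control or discordant-duplicate wells dropped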. Meaning of the calls: active = modifier hit (raised or lowered Notch signal); inactive = not a hit.
The screen tested about 22,000 reagents; below is a random part of those with a known target gene and a result. Of all reagents, 403 (1.9%) got an active call. 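Unnormalised raw counts per well; ratio z-scores behind the hit calls and whether each hit raises or lowers signal are not deposited.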 Reagent sequences are not shown. Not stated in the record: the amount of reagent.

| Target gene | DRSC id | induced reporter light, run 1, well a | induced reporter light, run 1, well b | control promoter light, run 1, well a | control promoter light, run 1, well b | uninduced reporter light, run 1, well a | outcome |
| --- | --- | --- | --- | --- | --- | --- | --- |
| CG14605 | DRSC12549 | 61995 | 80260 | 83905 | 62240 | 4715 | inactive |
| RPA2 | DRSC03184 | 1.79e5 | 1.52e5 | 1.20e5 | 1.02e5 | 13820 | inactive |
| Sid | DRSC16588 | 1.45e5 | 1.54e5 | 2.26e5 | 2.11e5 | 14610 | inactive |
| Rpn3 | DRSC03318 | 9860 | 11835 | 9970 | 13130 | 880 | inactive |
| CG42700 | DRSC06292 | 9380 | 7328 | 12675 | 8655 | 2340 | inactive |
| CG42700 | DRSC06293 | 1.13e5 | 1.10e5 | 1.01e5 | 1.11e5 | 9040 | inactive |
| Mrp5 | DRSC15597 | 1.70e5 | 1.48e5 | 1.65e5 | 1.81e5 | 10695 | inactive |
| Mrp5 | DRSC15598 | 1.61e5 | 1.77e5 | 1.56e5 | 1.78e5 | 11995 | inactive |
| eg | DRSC11885 | 1.58e5 | 1.15e5 | 1.55e5 | 1.11e5 | 8145 | inactive |
| scaf6 | DRSC10075 | 1.16e5 | 1.13e5 | 79320 | 79915 | 11765 | inactive |
| scaf6 | DRSC10676 | 2.85e5 | 2.42e5 | 3.19e5 | 2.51e5 | 11665 | inactive |
| scaf6 | DRSC10678 | 1.03e5 | 83345 | 91945 | 96260 | 9705 | inactive |
| Polr3B | DRSC07536 | 1.14e5 | 1.09e5 | 1.13e5 | 81725 | 11570 | inactive |
| CG31921 | DRSC00013 | 1.06e5 | 1.04e5 | 1.45e5 | 1.39e5 | 9070 | inactive |
| Appl | DRSC17728 | 1.69e5 | 1.67e5 | 1.65e5 | 1.76e5 | 10810 | inactive |
| GNBP3 | DRSC11170 | 1.77e5 | 2.03e5 | 2.46e5 | 1.66e5 | 12545 | inactive |
| PrBP | DRSC03189 | 88445 | 92945 | 37775 | 44595 | 7025 | inactive |
| Acp98AB (retired record) | DRSC21837 | – | – | – | – | – | active |
| Trap1 | DRSC05019 | 1.96e5 | 1.77e5 | 1.44e5 | 1.59e5 | 12505 | inactive |
| Ntmt | DRSC06624 | 1.80e5 | 1.77e5 | 1.76e5 | 2.03e5 | 16170 | inactive |

In a second layout: results already given.
{"Target gene":"Polr3B","DRSC id":"DRSC07536","induced reporter light, run 1, well a":1.14e5,"induced reporter light, run 1, well b":1.09e5,"control promoter light, run 1, well a":1.13e5,"control promoter light, run 1, well b":81725,"uninduced reporter light, run 1, well a":11570,"outcome":"inactive"}
{"Target gene":"CG31921","DRSC id":"DRSC00013","induced reporter light, run 1, well a":1.06e5,"induced reporter light, run 1, well b":1.04e5,"control promoter light, run 1, well a":1.45e5,"control promoter light, run 1, well b":1.39e5,"uninduced reporter light, run 1, well a":9070,"outcome":"inactive"}
{"Target gene":"Appl","DRSC id":"DRSC17728","induced reporter light, run 1, well a":1.69e5,"induced reporter light, run 1, well b":1.67e5,"control promoter light, run 1, well a":1.65e5,"control promoter light, run 1, well b":1.76e5,"uninduced reporter light, run 1, well a":10810,"outcome":"inactive"}
